From article PMC9892639

Sequences of proteins named here, by UniProt entry; tags and fusion partners are left off. A change or cut given only in a name is not applied to a line headed by its entry.
UniProt P51150: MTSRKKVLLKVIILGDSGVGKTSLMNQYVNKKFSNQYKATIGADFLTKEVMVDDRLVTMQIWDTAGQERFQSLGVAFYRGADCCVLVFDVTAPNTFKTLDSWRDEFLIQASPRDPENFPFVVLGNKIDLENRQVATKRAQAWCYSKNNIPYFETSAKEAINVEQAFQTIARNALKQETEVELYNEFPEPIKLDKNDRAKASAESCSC
UniProt Q60932: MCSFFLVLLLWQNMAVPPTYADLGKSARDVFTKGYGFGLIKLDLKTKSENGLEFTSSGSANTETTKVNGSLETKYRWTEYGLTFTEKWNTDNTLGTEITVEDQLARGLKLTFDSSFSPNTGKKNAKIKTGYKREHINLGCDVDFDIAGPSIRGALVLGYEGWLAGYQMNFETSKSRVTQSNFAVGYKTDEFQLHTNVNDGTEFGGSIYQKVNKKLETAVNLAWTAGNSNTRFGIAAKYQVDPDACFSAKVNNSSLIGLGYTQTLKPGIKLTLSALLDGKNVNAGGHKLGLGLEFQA

Columns and labels:
[1] = biological target: Rab7a (mouse (endogenous in iNKT cells)) (UniProt P51150); experiment: proximity ligation; in situ PLA (Duolink) in fixed, permeabilised CD1d-PBS57 tetramer+ iNKT cells stimulated with anti-CD3 plus anti-CD28 or CD1d-PBS57 tetramer for 4 hours; puncta counted by confocal microscopy or imaging flow cytometry; cells from Vam6+/+, Vam6+/-, Vdac1+/+, Vdac1+/-, Vdac1-/- mice, with or without AICAR
[2] = biological target: T1, Vam6 (also named Vps39) (mouse (endogenous in iNKT cells)) (UniProt Q8R5L3); experiment: co-IP; expanded iNKT cells lysed in NP-40 buffer with protease inhibitors; antibody (1 μg/mL) on Dynabeads protein G, lysate incubated at 4 °C overnight; immunoblot
T1 sequence: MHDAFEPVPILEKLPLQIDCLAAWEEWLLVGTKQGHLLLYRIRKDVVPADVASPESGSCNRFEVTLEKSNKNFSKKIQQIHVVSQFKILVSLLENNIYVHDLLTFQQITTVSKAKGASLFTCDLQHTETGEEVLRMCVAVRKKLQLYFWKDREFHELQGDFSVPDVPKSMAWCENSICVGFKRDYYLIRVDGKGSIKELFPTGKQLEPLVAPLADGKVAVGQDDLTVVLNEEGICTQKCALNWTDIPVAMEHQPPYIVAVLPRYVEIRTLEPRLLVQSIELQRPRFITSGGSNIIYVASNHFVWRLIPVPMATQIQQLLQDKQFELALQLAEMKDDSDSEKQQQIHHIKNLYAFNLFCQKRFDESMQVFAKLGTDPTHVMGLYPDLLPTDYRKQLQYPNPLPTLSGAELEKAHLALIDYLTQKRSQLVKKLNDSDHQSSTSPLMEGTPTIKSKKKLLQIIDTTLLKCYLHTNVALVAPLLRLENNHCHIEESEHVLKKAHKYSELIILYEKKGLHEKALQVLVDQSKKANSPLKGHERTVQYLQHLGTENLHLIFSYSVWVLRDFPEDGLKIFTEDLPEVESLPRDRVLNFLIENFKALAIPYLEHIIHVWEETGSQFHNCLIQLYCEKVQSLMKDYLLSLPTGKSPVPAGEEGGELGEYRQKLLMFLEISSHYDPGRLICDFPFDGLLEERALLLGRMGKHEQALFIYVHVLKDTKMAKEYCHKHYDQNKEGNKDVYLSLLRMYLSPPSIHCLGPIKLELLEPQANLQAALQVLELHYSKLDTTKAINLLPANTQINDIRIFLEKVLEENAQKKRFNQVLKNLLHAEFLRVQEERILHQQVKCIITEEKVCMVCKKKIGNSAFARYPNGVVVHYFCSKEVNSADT

## VDAC1 (from UniProt Q60932)
[1]
  binding: binds
[2]
  binding: binds

These are yes or no findings as the source states them, for the method shown. Binding seen in cells or lysates may run through a third protein. Binding calls can cover weak binding; strength is not graded here.
